PubChem BioAssay AID504808, Drosophila RNAi Screening Center, 2011

- Aim: 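Fly genes required to hold E2F transcription in check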 (primary screen)
- System: Drosophila S2 cells
- Reagents: long dsRNA against Drosophila genes
- Measured: 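Dual luciferase plate measurements; E2F-specific signal taken as firefly over Renilla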
- Direction: E2F firefly: higher = more E2F reporter activity; Renilla normaliser: higher = more normaliser reporter signal
- Active means: 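a knock-down counted as active when the firefly/Renilla E2F signal rose above 50%, a threshold chosen arbitrarily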
The deposit covers about 21,000 reagents; below is a random part of those with a known target gene and a result. Over the whole deposit, 18 (0.084%) got an active call. 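Raw counts without plate normalisation, one of two replicates; the ratio scores behind the calls were not deposited.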 The numbers tell different reagents against one gene apart. A plus sign joins genes that one reagent is predicted to hit. Not stated in the record: the amount of reagent, the time to read-out.

Lrt (GeneID 37342) — E2F firefly, rep 1: 1.01e5; Renilla normaliser, rep 1: 4011; activity call: inactive
CG31556 (retired record) (GeneID 318800) — E2F firefly, rep 1: 64419; Renilla normaliser, rep 1: 3530; activity call: inactive
PH4alphaEFB (GeneID 43620) #1 — E2F firefly, rep 1: 1651; Renilla normaliser, rep 1: 844; activity call: inactive
PH4alphaEFB (GeneID 43620) #2 — E2F firefly, rep 1: 1.35e5; Renilla normaliser, rep 1: 6203; activity call: inactive
stas (GeneID 32737) — E2F firefly, rep 1: 1.48e5; Renilla normaliser, rep 1: 5918; activity call: inactive
NiPp1 (GeneID 44748) — E2F firefly, rep 1: 73092; Renilla normaliser, rep 1: 3034; activity call: inactive
Sil1 (GeneID 43034) — E2F firefly, rep 1: 66208; Renilla normaliser, rep 1: 3573; activity call: inactive
CG6569 (GeneID 42573) — E2F firefly, rep 1: 1.42e5; Renilla normaliser, rep 1: 7121; activity call: inactive
CG8320 + ATPCL — E2F firefly, rep 1: 1.41e5; Renilla normaliser, rep 1: 4912; activity call: inactive
Atg101 (GeneID 32871) — E2F firefly, rep 1: 1.35e5; Renilla normaliser, rep 1: 8452; activity call: inactive
Grasp65 (GeneID 40177) — E2F firefly, rep 1: 1.34e5; Renilla normaliser, rep 1: 7586; activity call: inactive
Prps (GeneID 39132) #1 — E2F firefly, rep 1: 1.63e5; Renilla normaliser, rep 1: 4422; activity call: inactive
Prps (GeneID 39132) #2 — E2F firefly, rep 1: 1.02e5; Renilla normaliser, rep 1: 4682; activity call: inactive
Prps (GeneID 39132) #3 — E2F firefly, rep 1: 1.13e5; Renilla normaliser, rep 1: 5839; activity call: inactive
Noc3 (GeneID 40870) — E2F firefly, rep 1: 59687; Renilla normaliser, rep 1: 3734; activity call: inactive
CG32655 (GeneID 318143) — E2F firefly, rep 1: 87562; Renilla normaliser, rep 1: 2731; activity call: inactive

4 successive records already listed:
NiPp1 (GeneID 44748) — E2F firefly, rep 1: 73092; Renilla normaliser, rep 1: 3034; activity call: inactive
Sil1 (GeneID 43034) — E2F firefly, rep 1: 66208; Renilla normaliser, rep 1: 3573; activity call: inactive
CG6569 (GeneID 42573) — E2F firefly, rep 1: 1.42e5; Renilla normaliser, rep 1: 7121; activity call: inactive
CG8320 + ATPCL — E2F firefly, rep 1: 1.41e5; Renilla normaliser, rep 1: 4912; activity call: inactive

Further records follow.
Hydr1 (GeneID 35930) — E2F firefly, rep 1: 58399; Renilla normaliser, rep 1: 3989; activity call: inactive
CG6805 (GeneID 36911) — E2F firefly, rep 1: 71778; Renilla normaliser, rep 1: 3131; activity call: inactive
MsR2 + CG13802 (retired record) #1 — E2F firefly, rep 1: 1.05e5; Renilla normaliser, rep 1: 4296; activity call: inactive
MsR2 + CG13802 (retired record) #2 — E2F firefly, rep 1: 1.12e5; Renilla normaliser, rep 1: 4647; activity call: inactive
galla-1 (GeneID 246485) — E2F firefly, rep 1: 96573; Renilla normaliser, rep 1: 4063; activity call: inactive
Gp150 (GeneID 37549) — E2F firefly, rep 1: 99120; Renilla normaliser, rep 1: 4631; activity call: inactive
CG31463 (GeneID 40978) — E2F firefly, rep 1: 1.24e5; Renilla normaliser, rep 1: 5780; activity call: inactive
UGP (GeneID 39065) — E2F firefly, rep 1: 74748; Renilla normaliser, rep 1: 3467; activity call: inactive
MED23 + CG3700 #1 — E2F firefly, rep 1: 88793; Renilla normaliser, rep 1: 4115; activity call: inactive
MED23 + CG3700 #2 — E2F firefly, rep 1: 86042; Renilla normaliser, rep 1: 4113; activity call: inactive
CG9106 (GeneID 32454) — E2F firefly, rep 1: 8490; Renilla normaliser, rep 1: 692; activity call: inactive
CG42329 (GeneID 33312) #1 — E2F firefly, rep 1: 1.55e5; Renilla normaliser, rep 1: 5445; activity call: inactive
CG42329 (GeneID 33312) #2 — E2F firefly, rep 1: 1.63e5; Renilla normaliser, rep 1: 5622; activity call: inactive
